Experimental data: publication doi:10.1101/650358
No constants are given. Whether binding was seen depends on the method and setting. Binding seen in cells or lysates may run through a third protein. Some binding calls cover weakened binding; strength is not graded here. For some assays here: Where a sequence is shown, tags or fusion partners need not be part of it.

T1: Arabidopsis thaliana LONESOME HIGHWAY (AtLHW), BiFC fusion (Arabidopsis thaliana) (UniProt Q9XIN0)
T1 sequence: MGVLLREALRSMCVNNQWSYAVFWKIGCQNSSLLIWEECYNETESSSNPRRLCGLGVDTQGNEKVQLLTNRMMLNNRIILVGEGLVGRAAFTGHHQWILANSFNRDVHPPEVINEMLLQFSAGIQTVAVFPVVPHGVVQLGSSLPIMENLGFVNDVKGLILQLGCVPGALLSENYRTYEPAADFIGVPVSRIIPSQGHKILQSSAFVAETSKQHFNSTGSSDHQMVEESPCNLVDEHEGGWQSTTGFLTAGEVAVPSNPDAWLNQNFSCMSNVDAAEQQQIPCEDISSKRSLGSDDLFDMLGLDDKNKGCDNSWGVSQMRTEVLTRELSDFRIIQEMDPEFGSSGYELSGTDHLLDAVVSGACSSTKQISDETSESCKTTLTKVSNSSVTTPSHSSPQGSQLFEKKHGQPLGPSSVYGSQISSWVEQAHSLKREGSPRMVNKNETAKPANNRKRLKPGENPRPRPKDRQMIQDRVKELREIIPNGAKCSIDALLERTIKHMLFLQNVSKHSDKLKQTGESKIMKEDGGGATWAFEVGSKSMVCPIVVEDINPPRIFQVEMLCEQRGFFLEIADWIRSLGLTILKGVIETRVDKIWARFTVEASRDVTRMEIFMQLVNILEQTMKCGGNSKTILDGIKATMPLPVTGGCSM

T2: Arabidopsis thaliana LHW (AtLHW), FRET-FLIM construct (Arabidopsis thaliana) (UniProt Q9XIN0)
T2 sequence: T1 sequence

B1: Arabidopsis thaliana TARGET OF MONOPTEROS 5 (AtTMO5), BiFC fusion (protein, UniProt Q9LS08 1-344)
chain: MYAMKEEDCLQTFHNLQDYQDQFHLHHHPQILPWSSTSLPSFDPLHFPSNPTRYSDPVHYFNRRASSSSSSFDYNDGFVSPPPSMDHPQNHLRILSEALGPIMRRGSSFGFDGEIMGKLSAQEVMDAKALAASKSHSEAERRRRERINTHLAKLRSILPNTTKTDKASLLAEVIQHMKELKRQTSQITDTYQVPTECDDLTVDSSYNDEEGNLVIRASFCCQDRTDLMHDVINALKSLRLRTLKAEIATVGGRVKNILFLSREYDDEEDHDSYRRNFDGDDVEDYDEERMMNNRVSSIEEALKAVIEKCVHNNDESNDNNNLEKSSSGGIKRQRTSKMVNRCYN
B2: Arabidopsis thaliana TMO5 (AtTMO5), FRET-FLIM construct (protein, UniProt Q9LS08 1-344)
chain: B1 chain
B3: Arabidopsis thaliana LONESOME HIGHWAY (AtLHW), BiFC fusion (protein, UniProt Q9XIN0 1-650)
chain: T1 sequence

Key:
[1] = molecular target: T1, Arabidopsis thaliana LONESOME HIGHWAY (AtLHW), BiFC fusion (Arabidopsis thaliana); assay: split reporter
[2] = molecular target: Arabidopsis thaliana TARGET OF MONOPTEROS 5 (AtTMO5), BiFC fusion (Arabidopsis thaliana) (UniProt Q9LS08); assay: split reporter
[3] = molecular target: T2, Arabidopsis thaliana LHW (AtLHW), FRET-FLIM construct (Arabidopsis thaliana); assay: FRET or BRET
[4] = molecular target: Arabidopsis thaliana TMO5 (AtTMO5), FRET-FLIM construct (Arabidopsis thaliana) (UniProt Q9LS08); assay: FRET or BRET

Row | Binder | binding [1] | binding [2] | binding [3] | binding [4]
1 | B1 | binds | binds | – | –
2 | B2 | – | – | binds | binds
3 | B3 | no binding | – | – | –
